Data published in US10092584B2 (Achillion Pharmaceuticals, Inc., priority 2015, dated 2018).

Chains of the proteins cited; added tags and fusions are not shown. Residues count along the entry.
UniProt P00746, 26-253: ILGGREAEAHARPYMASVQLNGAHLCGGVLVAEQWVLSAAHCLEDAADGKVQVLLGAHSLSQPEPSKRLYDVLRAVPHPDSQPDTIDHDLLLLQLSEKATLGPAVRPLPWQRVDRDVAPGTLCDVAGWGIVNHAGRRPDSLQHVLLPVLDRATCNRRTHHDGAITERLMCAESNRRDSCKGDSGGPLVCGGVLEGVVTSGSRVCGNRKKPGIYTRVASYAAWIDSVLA

Target: T1, Human Factor D (Homo sapiens, UniProt P00746)
T1 construct: purified from human serum; purchased Complement Technology, Inc; host or cells: human serum
Assay: Human Factor D assay (Example 8)
Format: biochemical
Experimental: Human Factor D (purified from human serum, Complement Technology, Inc.) at 80 nM final concentration was incubated with test compound at various concentrations for 5 minutes at room temperature in 50 mM Tris, 1M NaCl, pH 7.5. A synthetic substrate Z-L-Lys-SBzl and DTNB (Ellman's reagent) are added to final concentrations of 100 μM each. […] IC50 values are calculated by nonlinear regression of complement Factor D reaction rates as a function of test compound concentration.

CC(=O)c1cn(CC(=O)N2C[C@H](F)C[C@H]2C(=O)NC2Cc3ccccc3C2)c2ccccc12 [Compound 43, (2S,4R)-1-(2-(3-acetyl-1H-indol-1-yl)acetyl)-N-(2,3-dihydro-1H-inden-2-yl)-4-fluoropyrrolidine-2-carboxamide]
IC50: < 1000 nM
